Reference: publication doi:10.1101/2025.09.30.679481
Results are given in words; binding and its absence hold for the method and conditions named. Binding seen in cells or lysates may run through a third protein. Some binding calls cover weakened binding; strength is not graded here.

Protein sequences, listed by entry. Tags and fused reporters are not part of them.
UniProt P21187: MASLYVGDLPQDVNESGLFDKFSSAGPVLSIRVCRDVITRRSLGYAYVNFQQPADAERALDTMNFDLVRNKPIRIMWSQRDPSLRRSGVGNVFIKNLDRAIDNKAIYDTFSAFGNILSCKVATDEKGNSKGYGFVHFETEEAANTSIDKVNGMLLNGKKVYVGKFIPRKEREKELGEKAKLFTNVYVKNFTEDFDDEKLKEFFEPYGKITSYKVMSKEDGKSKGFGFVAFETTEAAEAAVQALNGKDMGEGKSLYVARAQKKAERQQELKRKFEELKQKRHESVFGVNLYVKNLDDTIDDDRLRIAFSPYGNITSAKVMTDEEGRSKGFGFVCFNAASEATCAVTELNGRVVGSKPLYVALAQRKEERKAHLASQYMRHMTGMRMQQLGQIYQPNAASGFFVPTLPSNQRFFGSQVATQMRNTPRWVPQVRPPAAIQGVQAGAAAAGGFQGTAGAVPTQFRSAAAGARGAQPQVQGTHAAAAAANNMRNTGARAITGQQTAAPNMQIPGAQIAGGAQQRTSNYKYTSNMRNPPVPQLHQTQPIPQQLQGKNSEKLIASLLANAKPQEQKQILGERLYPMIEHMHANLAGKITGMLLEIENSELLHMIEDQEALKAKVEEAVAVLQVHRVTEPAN

Molecular target: T1, Bicaudal-D (D. melanogaster (endogenous in embryos)) (UniProt P16568)
T1 sequence: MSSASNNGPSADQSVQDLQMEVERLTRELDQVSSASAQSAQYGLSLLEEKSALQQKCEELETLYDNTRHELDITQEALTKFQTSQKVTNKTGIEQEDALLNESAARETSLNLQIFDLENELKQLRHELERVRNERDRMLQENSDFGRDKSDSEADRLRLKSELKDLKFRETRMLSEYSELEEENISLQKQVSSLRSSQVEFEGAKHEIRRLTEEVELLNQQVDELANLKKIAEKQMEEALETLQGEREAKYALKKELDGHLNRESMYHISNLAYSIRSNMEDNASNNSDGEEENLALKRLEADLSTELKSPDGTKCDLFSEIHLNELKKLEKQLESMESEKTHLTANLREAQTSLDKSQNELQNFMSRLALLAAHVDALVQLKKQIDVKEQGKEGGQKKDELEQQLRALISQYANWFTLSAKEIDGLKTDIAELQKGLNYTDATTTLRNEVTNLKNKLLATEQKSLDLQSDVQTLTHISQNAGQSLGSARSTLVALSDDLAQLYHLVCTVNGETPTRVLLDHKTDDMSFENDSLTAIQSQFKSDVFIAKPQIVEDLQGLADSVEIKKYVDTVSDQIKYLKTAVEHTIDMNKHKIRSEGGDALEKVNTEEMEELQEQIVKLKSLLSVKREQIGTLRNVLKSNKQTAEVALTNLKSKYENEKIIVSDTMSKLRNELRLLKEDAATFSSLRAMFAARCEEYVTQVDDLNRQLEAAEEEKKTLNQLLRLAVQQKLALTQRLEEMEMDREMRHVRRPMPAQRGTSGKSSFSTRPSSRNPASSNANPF
Assay: co-IP

Substance: poly-A binding protein (from UniProt P21187 1-634)
- binding: binds
